Record: PubChem BioAssay AID493246 (Drosophila RNAi Screening Center, 2011)
The deposit covers about 21,000 reagents; below is an unselected part of those with a known target gene and a result. Over the whole deposit, 429 (2%) got an active call. 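Values are raw and not normalised between plates; calls rest on per-plate z-scores that were not deposited.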 Unmarked entries are inactive. A plus sign joins genes that one reagent is predicted to hit. No sequences are given here. Not given: the amount of reagent, the time to read-out.

- Test: 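Genome-wide search for dsRNAs that reduce cell number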 (primary screen)
- Cell system: Drosophila Kc and S2R+ cells
- Knock-down reagent: long dsRNA against Drosophila genes
- Detection: 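Cell number per well after knock-down, printed as raw plate values; calls were based on per-plate z-scores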
- Direction: Kc cell number and S2R+ cell number: higher = more cells remaining
- Active means: 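Active when the per-plate z-score of cell number is 3 or more in the direction of fewer cells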

target gene | DRSC id | Kc cell number, rep 1 | Kc cell number, rep 2 | S2R+ cell number, rep 1 | S2R+ cell number, rep 2
Scox | DRSC03117 | 1.35e6 | 1.35e6 | 9.52e5 | 1.08e6
CG14450 | DRSC11707 | 1.58e6 | 1.69e6 | 1.31e6 | 1.45e6
Dlish | DRSC06016 | 1.71e6 | 1.75e6 | 1.23e6 | 1.39e6
CG15650 | DRSC04241 | 1.60e6 | 1.68e6 | 1.36e6 | 4.71e5
CG12419 (retired record) | DRSC14513 | 1.50e6 | 1.52e6 | 1.36e6 | 1.44e6
brm | DRSC11330 | 1.12e6 | 1.08e6 | 1.15e6 | 1.29e6
chas | DRSC19508 | 1.54e6 | 1.51e6 | 1.05e6 | 1.15e6
chas | DRSC19509 | 1.51e6 | 1.49e6 | 1.08e6 | 1.10e6
CG34231 | DRSC05323 | 1.47e6 | 1.47e6 | 1.02e6 | 1.18e6
CG3156 | DRSC18503 | 5.26e5 | – | 8.08e5 | –
CG12609 | DRSC19473 | 1.60e6 | 1.74e6 | 1.06e6 | 1.27e6
CG6550 | DRSC07001 | 9.04e5 | 1.04e6 | 1.10e6 | 1.01e6
CG11470 | DRSC14313 | 1.45e6 | 1.49e6 | 9.62e5 | 1.09e6
CG3223 | DRSC15468 | 1.51e6 | 1.73e6 | 1.29e6 | 1.32e6
CG31086 + CG31323 | DRSC14902 | 1.79e6 | 1.81e6 | 1.07e6 | 1.18e6
c(3)G | DRSC15245 | 1.58e6 | 1.72e6 | 1.15e6 | 1.32e6
CG4743 | DRSC15636 | 1.53e6 | 1.49e6 | 9.35e5 | 1.06e6
CG2961 | DRSC18246 | 1.58e6 | 1.52e6 | 1.15e6 | 1.30e6
CG11808 | DRSC06088 | 1.27e6 | 1.44e6 | 8.92e5 | 9.34e5
CG3803 | DRSC04420 | 1.66e6 | 1.64e6 | 1.31e6 | 1.43e6
CG6847 | DRSC19213 | 1.27e6 | 1.42e6 | 1.03e6 | 1.14e6
CG6847 | DRSC20009 | 1.52e6 | 1.54e6 | 1.14e6 | 1.23e6
CG31717 | DRSC01121 | 1.50e6 | 1.56e6 | 1.05e6 | 1.16e6
CG30487 | DRSC05377 | 1.57e6 | 1.53e6 | 1.05e6 | 1.26e6
betaGlu | DRSC15419 | 5.03e5 | – | 7.25e5 | –
CG5731 | DRSC02883 | 1.79e6 | 1.83e6 | 1.20e6 | 1.29e6
promL | DRSC08733 | 9.51e5 | 1.21e6 | 1.12e6 | 7.91e5
alphaCOP | DRSC08706 | 1.50e6 | 1.57e6 | 8.26e5 | 9.24e5
CG14301 | DRSC14780 | 1.25e6 | 1.19e6 | 1.15e6 | 1.25e6
alphaKap4 | DRSC09823 | 1.70e6 | 1.57e6 | 1.13e6 | 1.29e6
SdhAL | DRSC10539 | 1.38e6 | 1.44e6 | 1.20e6 | 1.17e6
CG1368 | DRSC19537 | 5.36e5 | – | 8.61e5 | –
ohgt | DRSC15521 | 1.71e6 | 1.70e6 | 1.36e6 | 1.53e6
icln | DRSC07630 | 1.58e6 | 1.62e6 | 1.12e6 | 1.29e6
CG10126 | DRSC14191 | 1.60e6 | 1.59e6 | 1.33e6 | 1.42e6
Arp3 | DRSC09669 | 1.26e6 | 1.34e6 | 1.32e6 | 1.25e6
CG31952 | DRSC00428 | 1.52e6 | 1.47e6 | 1.11e6 | 1.26e6

Next part (7 carried over from the part before).
target gene | DRSC id | Kc cell number, rep 1 | Kc cell number, rep 2 | S2R+ cell number, rep 1 | S2R+ cell number, rep 2
SdhAL | DRSC10539 | 1.38e6 | 1.44e6 | 1.20e6 | 1.17e6
CG1368 | DRSC19537 | 5.36e5 | – | 8.61e5 | –
ohgt | DRSC15521 | 1.71e6 | 1.70e6 | 1.36e6 | 1.53e6
icln | DRSC07630 | 1.58e6 | 1.62e6 | 1.12e6 | 1.29e6
CG10126 | DRSC14191 | 1.60e6 | 1.59e6 | 1.33e6 | 1.42e6
Arp3 | DRSC09669 | 1.26e6 | 1.34e6 | 1.32e6 | 1.25e6
CG31952 | DRSC00428 | 1.52e6 | 1.47e6 | 1.11e6 | 1.26e6
PolZ1 | DRSC06800 | 1.35e6 | 1.46e6 | 1.01e6 | 1.03e6
CG13717 (retired record) | DRSC08324 | 1.48e6 | 1.40e6 | 1.04e6 | 1.11e6
CG13717 (retired record) | DRSC08326 | 1.50e6 | 1.47e6 | 8.71e5 | 1.01e6
CG30037 | DRSC07305 | 1.60e6 | 1.64e6 | 1.34e6 | 1.51e6
CG6766 | DRSC02991 | 1.50e6 | 1.55e6 | 1.02e6 | 1.14e6
CG10194 | DRSC02025 | 1.42e6 | 1.48e6 | 1.30e6 | 1.37e6
CG7829 | DRSC16322 | 1.43e6 | 1.44e6 | 1.01e6 | 1.12e6
C15 | DRSC13495 | 1.65e6 | 1.57e6 | 1.10e6 | 1.24e6
C15 | DRSC14169 | 1.37e6 | 1.35e6 | 9.06e5 | 1.01e6
CycJ | DRSC08653 | 1.38e6 | 1.47e6 | 1.14e6 | 1.19e6
CG43689 | DRSC18383 | 1.13e6 (active) | 1.27e6 | 5.85e5 | 6.64e5
Zir | DRSC00307 | 1.28e6 | 1.18e6 | 7.41e5 | 7.09e5
Ppm1 | DRSC08260 | 1.17e6 | 1.22e6 | 1.07e6 | 1.27e6
CG14238 | DRSC14732 | 1.46e6 | 1.49e6 | 9.75e5 | 1.13e6
Bulli | DRSC10974 | 1.39e6 | 1.35e6 | 1.12e6 | 1.26e6
ft | DRSC00819 | 1.37e6 | 1.34e6 | 1.21e6 | 1.29e6
CG17739 | DRSC06689 | 1.34e6 | 1.45e6 | 1.14e6 | 1.21e6
Xxylt | DRSC04107 | 1.42e6 | 1.46e6 | 1.03e6 | 1.12e6
CG14861 | DRSC14984 | 1.24e6 | 1.41e6 | 1.11e6 | 1.25e6
mats | DRSC13562 | 1.48e6 | 1.48e6 | 1.12e6 | 1.25e6
mats | DRSC14702 | 1.57e6 | 1.58e6 | 1.20e6 | 1.16e6
Cp190 | DRSC16607 | 1.68e6 | 1.78e6 | 1.31e6 | 1.42e6
